Measured values as given in US6436890B1, “Antimicrobial detergent composition” (Inui Corporation, priority 1999, dated 2002).

Columns and labels:
Test in all cases: microbe, parasite or virus in culture
Type in all cases: cell-based
[1] = test system: Bacillus subtilis ATCC 6633
Procedure: (§1) L-broth (5 ml) was inoculated with each bacteria and, after incubation at 37° C. for 18 hours, the MIC (minimum inhibitory concentration) was measured according to the Nutrient Broth liquid medium dilution method.

[2] = test system: Pseudomonas aeruginosa ATCC 10145
Procedure: as §1

[3] = test system: Escherichia coli K12W3110
Procedure: as §1

[4] = test system: Staphylococcus aureus IFO 12732
Procedure: as §1

**Q.** What does the source list for `CCCCCCCCCCCCCCCC[n+]1ccccc1` [CPC, cetylpyridinium chloride, reference compound]?
**A.** MIC ([1]; ATCC6633, procedure 1 of 7, B. subtilis ATCC 6633): 3.8 µg/mL; MIC ([1]; ATCC6633, procedure 2 of 7, B. subtilis ATCC 6633): 3.1 µg/mL; MIC ([1]; ATCC6633, procedure 3 of 7, B. subtilis ATCC 6633): 3.8 µg/mL; MIC ([1]; ATCC6633, procedure 4 of 7, B. subtilis ATCC 6633): 6 µg/mL; MIC ([1]; ATCC6633, procedure 5 of 7, B. subtilis ATCC 6633): 6.2 µg/mL; MIC ([1]; ATCC6633, procedure 6 of 7, B. subtilis ATCC 6633): 7.7 µg/mL; MIC ([1]; ATCC6633, procedure 7 of 7, B. subtilis ATCC 6633): 9.6 µg/mL; MIC ([2]; ATCC10145, procedure 1 of 7, P. aeruginosa ATCC 10145): 76.9 µg/mL; MIC ([2]; ATCC10145, procedure 2 of 7, P. aeruginosa ATCC 10145): 96.1 µg/mL; MIC ([2]; ATCC10145, procedure 3 of 7, P. aeruginosa ATCC 10145): 150 µg/mL; MIC ([2]; ATCC10145, procedure 4 of 7, P. aeruginosa ATCC 10145): 192 µg/mL; MIC ([2]; ATCC10145, procedure 5 of 7, P. aeruginosa ATCC 10145): 240 µg/mL; MIC ([2]; ATCC10145, procedure 6 of 7, P. aeruginosa ATCC 10145): 307 µg/mL; MIC ([2]; ATCC10145, procedure 7 of 7, P. aeruginosa ATCC 10145): 384 µg/mL; MIC ([3]; K12W3110, procedure 1 of 7, E. coli K12W3110): 24.6 µg/mL; MIC ([3]; K12W3110, procedure 2 of 7, E. coli K12W3110): 30.7 µg/mL; MIC ([3]; K12W3110, procedure 3 of 7, E. coli K12W3110): 38.3 µg/mL; MIC ([3]; K12W3110, procedure 4 of 7, E. coli K12W3110): 38.3 µg/mL; MIC ([3]; K12W3110, procedure 5 of 7, E. coli K12W3110): 46.2 µg/mL; MIC ([3]; K12W3110, procedure 6 of 7, E. coli K12W3110): 49.2 µg/mL; MIC ([3]; K12W3110, procedure 7 of 7, E. coli K12W3110): 49.2 µg/mL; MIC ([4]; IFO12732, procedure 1 of 7, S. aureus IFO 12732): 0.2 µg/mL; MIC ([4]; IFO12732, procedure 2 of 7, S. aureus IFO 12732): 0.3 µg/mL; MIC ([4]; IFO12732, procedure 3 of 7, S. aureus IFO 12732): 0.4 µg/mL; MIC ([4]; IFO12732, procedure 4 of 7, S. aureus IFO 12732): 0.4 µg/mL; MIC ([4]; IFO12732, procedure 5 of 7, S. aureus IFO 12732): 0.9 µg/mL; MIC ([4]; IFO12732, procedure 6 of 7, S. aureus IFO 12732): 1.5 µg/mL; MIC ([4]; IFO12732, procedure 7 of 7, S. aureus IFO 12732): 2.4 µg/mL
